Measured values reported in article PMC10163288.
The other results are listed elsewhere or left out.

B1: il10ra_site1_normal_mot_HHH_b1_02809_af2_000000277_0001_40_57_H_._HHH_b2_04730_af2_0001_0000100007_0000001_0_af2pred_0001 (protein)
chain: SSSSDEEEKQVRRLLRAAEFAEEQGDERAAKILLRLALLLARLLNNEELVEEVERLLEELSSSSS
B2: il10ra_site1_sap_20_mot_HHH_b1_07100_000000193_0001_1_18_H_._HHH_b2_05849_0001_0000400035_0000001_0_0001_af2pred_0001 (protein)
chain: SSSSSERLELTIKFIEFLLEQGDPEAAKRLARAAAQIAKKDGDEELLRRIEELLEEAEELLSSSS
B3: il10ra_site1_normal_mot_HHH_b1_05357_000000034_0001_23_39_H_._HHH_b2_01639_0001_0000100002_0000001_0_af2pred_0001 (protein)
chain: SSSSSSDSEEEVEELLEEAKQIEDRQELAYVLIRAFAIANQANDPELKELVEKVAIKLSSSSSSS
B4: il10ra_site1_normal_mot_HHH_b1_06256_000000091_0001_42_58_H_._HHH_b2_07403_0001_0000100008_0000001_0_af2pred_0001 (protein)
chain: SSSSTEERVARLLFEALELLANGNPEEAEELVEEAKRLAEELNDPELERAVEILERFVKLLSSSS
B5: il10ra_site1_sap_18_mot_HHH_b2_01760_000000115_0001_41_54_H_._HHH_b2_03943_0001_0000300040_0000001_0_0001 (protein)
chain: SSSSSDEEVQEEVEELLEEAKHIEDERELSRVLQEATHLALRLGDAELLRLVWRVVKELGSSSSS
B6: il10ra_site1_sap_13_mot_cb37e3bbdb9b21896581229d2f79fce4_0001_1_af2_000000054_0001_15_28_H_._0c3bf8cb9d93094680b22e24baf1e485_0001_af2_0001_0000300022_0000001_0 … (protein)
chain: SSSSDDERREVYELVRRVIELHHEGNPEEAREVLREAKELAEEIGSDVLRMVIEYLEKQLSSSSS
B7: il10ra_site1_normal_mot_HHH_b1_06348_000000162_0001_1_15_H_._HHH_b1_01821_0001_0000100007_0000001_0 (protein)
chain: SSSSDEEDHELYRLSRKIAELLAQGDREEARELLEEAERLAEEANNELIRFALEILERAINSSSS
B8: il10ra_site1_normal_mot_HHH_b2_00277_af2_000000172_0001_1_17_H_._HHH_b2_02426_0001_0000100002_0000001_0_af2pred_0001 (protein)
chain: SSSSSSDEEEVQELLEEARKIEDREEVAYLLIRAFALATERRDPELEELVRRVAKEIISSSSSSS
B9: il10ra_site1_sap_15_mot_HHH_b2_00800_af2_000000047_0001_1_20_H_._HHH_b1_06628_af2_0001_0000100001_0000001_0_0001 (protein)
chain: DIVELIEEALEEGDPDLLYRLLKELAEEAAEKNDPRLLRVVTLLSRAVLARDPELLKEAEERLKE
B10: il10ra_site1_sap_20_mot_HHH_b1_05021_af2_000000167_0001_42_56_H_._HHH_b1_06778_0001_0000100002_0000001_0_0001 (protein)
chain: SSSDEAFELLREAFEELKELAEEGDEEEFRRLTERVKEELEELGNRLAAWVLENAAKLLLRSSSS
B11: il10ra_site1_normal_mot_HHH_b2_08186_000000021_0001_43_56_H_._HHH_b2_01518_af2_0001_0000300023_0000001_0 (protein)
chain: SSSSSDEEEERVEELLEEAREIEDREKVRRILMEALQIAQELSNPELLKLVWEVLKELAGSSSSS
B12: il10ra_site1_sap_24_mot_HHH_b1_07380_000000129_0001_1_20_H_._HHH_b1_06010_af2_0001_0000100008_0000001_0_0001_af2pred_0001 (protein)
chain: SSSSDDQKKIELTLRFARWLLEQGDEEAVRFFLEAARQLAERAGDPELQRLVEEFEEELKSSSSS
B13: il10ra_site1_sap_14_mot_HHH_b2_01447_af2_000000258_0001_1_20_H_._HHH_b2_01069_0001_0000400054_0000001_0_0001 (protein)
chain: SSSSSSTEAEEIWRLIREALHIDDPEEARELLEQAQELAEELNSRVLAIQVRFLLRSRSSSSSSS
B14: il10ra_site1_sap_34_mot_HHH_b1_01513_af2_000000021_0001_1_16_H_._HHH_b2_07752_0001_0000400029_0000002_0_0001_af2pred_dldesign_0_af2pred (protein)
chain: SSSSSNPKEFLKKALEYAKWLLEQGDEESAAYVVAAARDMIERAGDPELRKMLEEFEEELSSSSS
B15: il10ra_site1_normal_mot_HHH_b2_05813_000000266_0001_1_19_H_._HHH_b2_04910_af2_0001_0000500012_0000002_0_af2pred_0001 (protein)
chain: SSSSNAEEIALKAAVRARRLLQKGDPEEAERILEEALEELEELGNPKAVRLIRNALRIIRLSSSS
B16: il10ra_site1_normal_mot_0750aae41c39e4229e2ea8fa354cc919_0001_1_000000144_0001_37_51_H_._HHH_b1_03276_0001_0001200092_0000001_0 (protein)
chain: SSSNAEISLKAAERALRVLLEEGDPERAEHALQFWAELDELAGNPELAEELREIFERLEQELSSS
B17: il10ra_site1_normal_mot_HHH_b1_02997_000000220_0001_39_52_H_._HHH_b1_06380_0001_0000200012_0000001_0_af2pred_0001 (protein)
chain: SSSSSSDEVHEIVRLIREALQIEDPEEAEKVLEEAERLAEEANNEQALIIIETAKRVLGSSSSSS
B18: il10ra_site1_normal_mot_HHH_b2_00837_af2_000000287_0001_40_54_H_._HHH_b1_03367_af2_0001_0000300020_0000002_0 (protein)
chain: SSSSDEEEEELKKLLEELEELVEEGDPRRVSRVAAEIARLAFRLNDPEALKRAWELVQSVKSSSS
B19: il10ra_site1_normal_mot_HHH_b2_06979_000000158_0001_42_57_H_._HHH_b1_03926_0001_0000300034_0000001_0 (protein)
chain: SSSSDVSQRIAELLRRASELLNEGNPEEAEELVEEALELAQENNNELLAHNAEFLLRDVRSSSSS
B20: il10ra_site1_sap_8_mot_HHH_b1_05357_000000034_0001_23_39_H_._HHH_b2_01639_0001_0000200008_0000001_0_0001 (protein)
chain: SSSSSEEEERLEELLERIKEAVERGDPELFAKLALELLRLAFQLRDEEVLQELHRLIEKAASSSS
B21: il10ra_site1_sap_13_mot_cffd2965c37bdde328b01796c783dcd7_0001_1_af2_000000013_0001_37_51_H_._32d9be0a7eede691a12a55b788178704_0001_af2_0001_0000500014_0000001_0 … (protein)
chain: SSSSDERELWRILLKALRAAYQNGDKELLEAIWELARRYAEEGDPRYVEEVEELVEEVEKSSSSS
B22: il10ra_site1_normal_mot_HHH_b2_08265_af2_000000206_0001_22_38_H_._HHH_b2_01362_0001_0000200008_0000001_0_1_af2pred_0001 (protein)
chain: SSSSSELEEEIEQLKKELEELLENNDPQRVVRVLRRLIKVAAETNDEEALELALEVAERLSSSSS
B23: il10ra_site1_normal_mot_HHH_b1_00999_000000080_0001_41_55_H_._HHH_b1_02031_af2_0001_0000100001_0000001_0 (protein)
chain: SSSSSDEEEEEVERLLEEAEKIPDPRERNEILLEALHIALELGDEELLQLVWKVVKELGSSSSSS
B24: il10ra_site1_sap_24_mot_HHH_b1_04940_000000219_0001_1_18_H_._HHH_b2_04489_0001_0000100005_0000001_0_0001 (protein)
chain: SSSSSSLEEAYELSRKLAELLREGDEEKFEELLEELRRLAEEGNNWIIRYLIEVLEAMLHSSSSS
B25: il10ra_site1_sap_15_mot_HHH_b1_03314_af2_000000278_0001_42_55_H_._HHH_b2_06830_0001_0000200008_0000002_0_0001 (protein)
chain: SSSSSSEEFEERVEELLERLEHVSPEERFRLLQEALHLAFQARNEELLQEIWRAAKEIAKSSSSS
B26: il10ra_site1_normal_mot_HHH_b2_08186_000000021_0001_43_56_H_._HHH_b2_01289_0002_0000200014_0000001_0 (protein)
chain: SSSSSDEVEELLEEVEELLREGNEEEALEVILRALQLAIRLSDPELLQEVWELLKKIAGSSSSSS
B27: il10ra_site1_normal_mot_HHH_b2_00573_000000208_0001_39_53_H_._HHH_b1_02008_0001_0000300018_0000001_0 (protein)
chain: SSSSDEEREEFERLYEEAEELLEEGDPEKVFEALRRLIELASELNDPELFRRVIRLIRELFSSSS
B28: il10ra_site1_sap_23_mot_HHH_b2_06497_000000202_0001_1_20_H_._HHH_b2_02266_af2_0001_0000800062_0000001_0_0001_af2pred_0001 (protein)
chain: SSSSSSEEVFRRVAELLAEAARIEDEEERKKVLEEAEELARENNDPLLEFAVEWAAERASSSSSS
B29: il10ra_site1_sap_15_mot_HHH_b2_00277_af2_000000172_0001_1_17_H_._HHH_b2_08320_0001_0000400029_0000001_0_0001_af2pred_0001 (protein)
chain: SSSSDEAAELLRRAAELAERIHREGDPELEEELEQLLEEVRELGDELVLRFVEFLLQLVQSSSSS
B30: il10ra_site1_sap_14_mot_HHH_b2_06795_000000133_0001_42_56_H_._HHH_b1_04942_0001_0000100002_0000002_0_0001 (protein)
chain: SSSSSSEEVWELIKRALELLAQGNEEEARKVLEEARELAEELNDFAALFAIRILEEDLNSSSSSS
B31: il10ra_site1_sap_15_mot_HHH_b1_00267_af2_000000050_0001_38_52_H_._HHH_b1_06096_0001_0000200009_0000001_0_0001 (protein)
chain: SSSSDEEQEELEELVRLLEELLKEGDRERFAETAQRALRIAFQLRDPEALRALWRLVKEFASSSS
B32: il10ra_site1_normal_mot_39ab2cb694c8b9c1dc7e65c0d672c93e_0001_000000036_0001_53_65_H_._HHH_b1_05574_0001_0000200012_0000001_0 (protein)
chain: SSSSSEEERIEELIERAEELLERGNPEEALRLVMEALRHAFRARNAELLKELWKLAKEIASSSSS
B33: il10ra_site1_normal_mot_HHH_b1_05860_000000142_0001_1_19_H_._HHH_b1_06300_0001_0000200017_0000002_0 (protein)
chain: SSSSTEEVYKLLREAAELLDNGNPEEARKVLEEAREIAEELNNELLEIQLEFLLKDIEEHSSSSS
B34: il10ra_site1_sap_24_mot_HHH_b1_06348_000000162_0001_1_15_H_._HHH_b2_05036_0001_0000200015_0000001_0_0001 (protein)
chain: SSSSDAAEFLLRQAIRALKLAGDEETVEELEELLEEYREKGDERYVQEALHLAAERALELKSSSS
B35: il10ra_site1_normal_mot_HHH_b1_04693_000000238_0001_19_36_H_._HHH_b2_03769_0001_0000100011_0000002_0 (protein)
chain: SSSSSQELYELLREIIELISDGDLEEAEELLEELRKLAEERNNPTIRVQVEFLEKLIRRLLSSSS
B36: il10ra_site1_normal_mot_HHH_b1_01082_af2_000000031_0001_3_19_H_._HHH_b1_00588_af2_0001_0000500037_0000001_0 (protein)
chain: SSSSDESEELLEEAEELLRKLLEEGDPQEAYKVLKKYIELLVELGDAQAALRLARRFQELSSSSS
B37: il10ra_site1_normal_mot_b26a303360aa2756ef5b79665ce52f45_0001_000000179_0001_1_11_H_._HHH_b2_07862_af2_0001_0000100002_0000001_0_af2pred_0001 (protein)
chain: SSSSSALEEIVRLIREALELLAEGNEEEAEEVLEEAEKLARENNNPLAEHIIRFLLRSIGSSSSS

Target: il10ra, Q13651
Test: yeast display titration

Apparent Kd, inactive:
B1 no binding seen
B2 no binding seen
B3 no binding seen
B4 no binding seen
B5 no binding seen
B6 no binding seen
B7 no binding seen
B8 no binding seen
B9 no binding seen
B10 no binding seen
B11 no binding seen
B12 no binding seen
B13 no binding seen
B14 no binding seen
B15 no binding seen
B16 no binding seen
B17 no binding seen
B18 no binding seen
B19 no binding seen
B20 no binding seen
B21 no binding seen
B22 no binding seen
B23 no binding seen
B24 no binding seen
B25 no binding seen
B26 no binding seen
B27 no binding seen
B28 no binding seen
B29 no binding seen
B30 no binding seen
B31 no binding seen
B32 no binding seen
B33 no binding seen
B34 no binding seen
B35 no binding seen
B36 no binding seen
B37 no binding seen

For convenience, part of the list above:
Apparent Kd, inactive:
B12 no binding seen
B13 no binding seen
